No constants are given. Whether binding was seen depends on the method and setting. Some binding calls cover weakened binding; strength is not graded here.
What was measured:
[1] = target: T1, active human TNF-α full length protein (human, UniProt P01375 77-233); assay: ELISA, TNF-α coated
[2] = target: T1, active human TNF-α full length protein; assay: ELISA, wells coated with 0.5 µg/mL TNF-α against non-coated wells
[3] = target: T1, active human TNF-α full length protein; assay: ELISA, TNF-α coated, sdAb 1 µg/mL, Experiment 1
[4] = target: T1, active human TNF-α full length protein; assay: ELISA, TNF-α coated, sdAb in four 10-fold dilutions from 1 µg/mL, Experiment 4

The chains behind the UniProt entries cited, without tags or fusion partners. Residues count along the entry.
UniProt P01375, residues 77-233: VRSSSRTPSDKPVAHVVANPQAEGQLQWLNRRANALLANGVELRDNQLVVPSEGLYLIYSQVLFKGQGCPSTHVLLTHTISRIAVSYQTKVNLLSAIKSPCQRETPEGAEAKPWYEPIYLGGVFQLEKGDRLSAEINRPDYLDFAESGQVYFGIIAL

Measured: binding

B1: anti-TNF-alpha VHH69 (SEQ ID NO:46) sdAb (VHH)
VHH: EVQLVESGGGSVLAGGSLRLSCVASGFTSRYNYMAWFRQAPGKEREGVATIGTASGSADYYGSVKDRFTISQDNAKNTVYLQMNSLKPEDTAMYYCAARTYGTISLTPSDYRYWGQGTLVTVSS
binds: [1] | [2] | [3] | [4]
